Our source for the log2 fold change values is the supplement of paper PMC10849652.

The chains behind the UniProt entries cited, without tags or fusion partners. Where a name states a change or a piece, a line headed by the entry shows the natural chain unless it says otherwise.
UniProt P48637: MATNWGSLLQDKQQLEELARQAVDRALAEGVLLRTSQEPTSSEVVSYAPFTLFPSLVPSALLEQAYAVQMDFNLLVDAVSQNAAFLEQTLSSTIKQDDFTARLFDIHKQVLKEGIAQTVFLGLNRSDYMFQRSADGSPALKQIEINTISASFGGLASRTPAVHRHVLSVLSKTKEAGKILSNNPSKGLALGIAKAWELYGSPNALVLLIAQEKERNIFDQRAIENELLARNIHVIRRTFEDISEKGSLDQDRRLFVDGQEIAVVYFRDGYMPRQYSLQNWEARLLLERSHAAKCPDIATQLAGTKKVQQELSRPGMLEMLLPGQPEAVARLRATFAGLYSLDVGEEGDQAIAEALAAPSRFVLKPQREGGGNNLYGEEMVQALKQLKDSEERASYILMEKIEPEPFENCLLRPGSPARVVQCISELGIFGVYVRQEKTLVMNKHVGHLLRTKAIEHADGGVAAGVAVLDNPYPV
UniProt O15379: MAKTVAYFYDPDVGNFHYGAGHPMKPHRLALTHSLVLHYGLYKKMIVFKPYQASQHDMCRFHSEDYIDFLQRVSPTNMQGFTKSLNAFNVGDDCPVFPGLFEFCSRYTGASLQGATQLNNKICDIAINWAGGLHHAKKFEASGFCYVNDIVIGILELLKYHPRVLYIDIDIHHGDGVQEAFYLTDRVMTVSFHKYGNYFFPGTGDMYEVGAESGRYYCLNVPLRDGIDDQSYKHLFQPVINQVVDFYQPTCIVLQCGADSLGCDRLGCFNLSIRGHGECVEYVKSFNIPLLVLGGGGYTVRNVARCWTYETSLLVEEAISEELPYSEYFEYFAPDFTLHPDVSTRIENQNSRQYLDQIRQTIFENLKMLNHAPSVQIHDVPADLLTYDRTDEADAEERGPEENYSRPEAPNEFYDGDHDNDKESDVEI
UniProt Q13889: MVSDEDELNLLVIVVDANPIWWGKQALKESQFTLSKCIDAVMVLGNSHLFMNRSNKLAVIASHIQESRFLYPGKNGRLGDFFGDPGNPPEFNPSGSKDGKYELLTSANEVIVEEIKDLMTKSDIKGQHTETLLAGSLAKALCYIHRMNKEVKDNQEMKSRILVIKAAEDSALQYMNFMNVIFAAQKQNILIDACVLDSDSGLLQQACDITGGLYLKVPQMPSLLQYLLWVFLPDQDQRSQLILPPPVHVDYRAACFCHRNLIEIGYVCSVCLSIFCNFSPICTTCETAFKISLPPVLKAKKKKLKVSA
UniProt Q9Y3E1: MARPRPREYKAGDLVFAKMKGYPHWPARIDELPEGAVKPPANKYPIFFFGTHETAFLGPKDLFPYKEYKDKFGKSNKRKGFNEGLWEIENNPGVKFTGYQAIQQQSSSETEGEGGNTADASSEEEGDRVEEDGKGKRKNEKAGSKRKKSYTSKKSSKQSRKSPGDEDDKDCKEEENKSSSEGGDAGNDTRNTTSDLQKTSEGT
UniProt Q00403, whole entry, looked up: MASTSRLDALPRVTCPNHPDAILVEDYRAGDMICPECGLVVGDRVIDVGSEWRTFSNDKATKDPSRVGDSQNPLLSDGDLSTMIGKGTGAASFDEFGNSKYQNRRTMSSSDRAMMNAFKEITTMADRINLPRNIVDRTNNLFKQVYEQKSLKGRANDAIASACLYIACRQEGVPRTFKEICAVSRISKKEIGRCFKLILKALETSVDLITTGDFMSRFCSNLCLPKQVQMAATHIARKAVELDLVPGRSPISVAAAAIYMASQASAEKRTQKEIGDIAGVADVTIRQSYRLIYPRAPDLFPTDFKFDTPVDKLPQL
UniProt Q9P035: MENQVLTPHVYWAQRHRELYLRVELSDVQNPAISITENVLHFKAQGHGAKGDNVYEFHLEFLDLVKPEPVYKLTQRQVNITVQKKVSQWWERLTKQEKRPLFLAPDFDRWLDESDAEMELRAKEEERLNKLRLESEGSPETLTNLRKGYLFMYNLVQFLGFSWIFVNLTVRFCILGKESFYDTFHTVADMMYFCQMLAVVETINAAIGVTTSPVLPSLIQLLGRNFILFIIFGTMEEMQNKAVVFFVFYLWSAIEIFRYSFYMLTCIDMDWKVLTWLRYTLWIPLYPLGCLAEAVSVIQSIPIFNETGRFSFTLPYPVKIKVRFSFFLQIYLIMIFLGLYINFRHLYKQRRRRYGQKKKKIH
UniProt Q8TDG4: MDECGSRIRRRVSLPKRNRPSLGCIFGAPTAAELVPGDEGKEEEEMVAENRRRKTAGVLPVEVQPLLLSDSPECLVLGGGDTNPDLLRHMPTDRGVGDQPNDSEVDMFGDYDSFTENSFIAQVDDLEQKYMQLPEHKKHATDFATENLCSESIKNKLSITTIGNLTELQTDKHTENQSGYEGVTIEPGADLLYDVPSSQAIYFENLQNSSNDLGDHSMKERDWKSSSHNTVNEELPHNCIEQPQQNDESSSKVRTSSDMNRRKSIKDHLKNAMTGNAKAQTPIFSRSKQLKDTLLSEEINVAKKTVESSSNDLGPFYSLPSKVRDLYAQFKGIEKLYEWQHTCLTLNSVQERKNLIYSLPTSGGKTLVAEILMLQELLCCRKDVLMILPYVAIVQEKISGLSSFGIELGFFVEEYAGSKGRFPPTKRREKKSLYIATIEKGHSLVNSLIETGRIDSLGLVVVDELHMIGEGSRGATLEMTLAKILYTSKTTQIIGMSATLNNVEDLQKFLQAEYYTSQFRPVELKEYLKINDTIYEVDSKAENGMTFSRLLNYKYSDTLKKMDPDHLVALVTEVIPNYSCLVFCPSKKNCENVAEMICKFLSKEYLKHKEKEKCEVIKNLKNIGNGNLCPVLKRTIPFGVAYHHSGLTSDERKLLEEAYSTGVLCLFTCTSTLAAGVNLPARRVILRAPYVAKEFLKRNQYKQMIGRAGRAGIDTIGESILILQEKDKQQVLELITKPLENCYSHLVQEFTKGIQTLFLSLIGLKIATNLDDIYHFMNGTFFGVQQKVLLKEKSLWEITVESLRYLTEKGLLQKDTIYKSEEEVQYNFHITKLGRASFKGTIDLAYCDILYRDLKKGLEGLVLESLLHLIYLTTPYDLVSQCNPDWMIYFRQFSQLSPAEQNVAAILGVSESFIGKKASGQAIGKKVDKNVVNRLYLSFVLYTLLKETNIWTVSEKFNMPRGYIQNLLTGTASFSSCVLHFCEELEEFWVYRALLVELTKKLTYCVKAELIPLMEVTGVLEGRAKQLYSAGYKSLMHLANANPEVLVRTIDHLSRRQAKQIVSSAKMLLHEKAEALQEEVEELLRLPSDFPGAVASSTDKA
UniProt P51858: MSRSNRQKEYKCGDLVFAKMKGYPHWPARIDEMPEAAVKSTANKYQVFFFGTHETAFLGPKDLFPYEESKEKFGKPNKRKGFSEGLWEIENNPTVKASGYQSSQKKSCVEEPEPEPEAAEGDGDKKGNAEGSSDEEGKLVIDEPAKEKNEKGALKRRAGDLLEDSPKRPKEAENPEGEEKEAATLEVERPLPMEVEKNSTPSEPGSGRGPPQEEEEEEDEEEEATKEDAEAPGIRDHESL
UniProt Q7Z4Q2: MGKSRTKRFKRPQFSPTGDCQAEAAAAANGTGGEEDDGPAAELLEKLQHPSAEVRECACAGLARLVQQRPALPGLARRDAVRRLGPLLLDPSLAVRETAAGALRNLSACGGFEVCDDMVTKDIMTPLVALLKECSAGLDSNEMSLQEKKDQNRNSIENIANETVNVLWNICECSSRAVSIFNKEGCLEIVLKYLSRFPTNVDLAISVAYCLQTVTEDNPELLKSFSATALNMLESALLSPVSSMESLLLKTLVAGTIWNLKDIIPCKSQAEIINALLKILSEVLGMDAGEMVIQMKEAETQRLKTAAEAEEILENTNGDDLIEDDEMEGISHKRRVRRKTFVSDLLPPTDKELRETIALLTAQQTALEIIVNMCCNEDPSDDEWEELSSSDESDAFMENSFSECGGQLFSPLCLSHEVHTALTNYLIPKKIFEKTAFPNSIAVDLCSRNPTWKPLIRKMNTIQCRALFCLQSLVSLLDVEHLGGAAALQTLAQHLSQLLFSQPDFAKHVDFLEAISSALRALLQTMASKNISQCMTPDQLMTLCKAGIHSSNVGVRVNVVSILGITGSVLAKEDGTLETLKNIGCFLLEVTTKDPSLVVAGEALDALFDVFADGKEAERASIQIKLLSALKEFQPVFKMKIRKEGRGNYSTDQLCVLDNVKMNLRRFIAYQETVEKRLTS
UniProt P52657, whole entry, looked up: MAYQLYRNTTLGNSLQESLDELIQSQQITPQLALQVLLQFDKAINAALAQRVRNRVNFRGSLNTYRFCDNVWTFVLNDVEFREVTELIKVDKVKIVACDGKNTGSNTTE
UniProt P06865: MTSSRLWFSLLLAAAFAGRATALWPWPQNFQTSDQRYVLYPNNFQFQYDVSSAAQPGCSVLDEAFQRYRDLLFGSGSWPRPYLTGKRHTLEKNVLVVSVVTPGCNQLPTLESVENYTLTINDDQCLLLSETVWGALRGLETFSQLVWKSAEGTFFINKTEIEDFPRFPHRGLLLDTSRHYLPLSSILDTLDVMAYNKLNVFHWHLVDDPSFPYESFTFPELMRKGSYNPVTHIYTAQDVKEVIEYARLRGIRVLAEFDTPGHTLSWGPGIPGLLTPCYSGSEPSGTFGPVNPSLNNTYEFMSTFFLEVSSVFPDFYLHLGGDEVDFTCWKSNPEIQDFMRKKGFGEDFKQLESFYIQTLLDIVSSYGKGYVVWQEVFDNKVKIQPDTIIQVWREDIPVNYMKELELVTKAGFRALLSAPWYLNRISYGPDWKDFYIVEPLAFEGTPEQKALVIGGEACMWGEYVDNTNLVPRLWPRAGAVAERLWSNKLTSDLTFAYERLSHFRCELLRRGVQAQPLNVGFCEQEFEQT
UniProt P46976: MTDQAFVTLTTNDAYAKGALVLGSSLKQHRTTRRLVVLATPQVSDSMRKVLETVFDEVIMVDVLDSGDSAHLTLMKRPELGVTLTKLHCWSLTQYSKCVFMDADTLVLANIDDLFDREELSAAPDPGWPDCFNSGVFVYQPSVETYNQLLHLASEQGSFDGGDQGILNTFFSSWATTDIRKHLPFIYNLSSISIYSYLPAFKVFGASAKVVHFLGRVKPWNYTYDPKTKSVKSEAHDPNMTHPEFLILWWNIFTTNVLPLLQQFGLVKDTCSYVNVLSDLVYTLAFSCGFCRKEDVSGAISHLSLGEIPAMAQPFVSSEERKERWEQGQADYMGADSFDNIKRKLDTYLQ
UniProt P10412, whole entry, looked up: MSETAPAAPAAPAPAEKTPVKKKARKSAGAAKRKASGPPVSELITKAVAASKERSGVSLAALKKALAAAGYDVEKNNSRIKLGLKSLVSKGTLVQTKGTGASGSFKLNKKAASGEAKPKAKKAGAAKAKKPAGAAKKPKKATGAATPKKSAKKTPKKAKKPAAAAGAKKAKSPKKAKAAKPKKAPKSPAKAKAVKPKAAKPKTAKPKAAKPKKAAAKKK
UniProt P35269, whole entry, looked up: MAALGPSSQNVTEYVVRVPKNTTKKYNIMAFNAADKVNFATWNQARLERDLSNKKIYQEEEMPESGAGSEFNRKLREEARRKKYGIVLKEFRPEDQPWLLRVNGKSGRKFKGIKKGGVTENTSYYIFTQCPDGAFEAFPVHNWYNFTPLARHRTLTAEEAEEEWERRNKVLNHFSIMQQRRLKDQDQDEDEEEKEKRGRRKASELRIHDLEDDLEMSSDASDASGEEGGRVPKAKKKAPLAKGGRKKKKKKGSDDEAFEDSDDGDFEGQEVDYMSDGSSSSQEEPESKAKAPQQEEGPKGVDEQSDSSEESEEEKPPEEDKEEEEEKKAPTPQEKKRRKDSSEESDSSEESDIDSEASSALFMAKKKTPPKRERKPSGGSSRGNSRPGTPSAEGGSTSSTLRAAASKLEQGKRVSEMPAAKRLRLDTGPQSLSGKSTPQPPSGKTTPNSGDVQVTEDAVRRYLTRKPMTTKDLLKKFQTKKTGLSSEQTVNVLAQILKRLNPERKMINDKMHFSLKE
UniProt P04921: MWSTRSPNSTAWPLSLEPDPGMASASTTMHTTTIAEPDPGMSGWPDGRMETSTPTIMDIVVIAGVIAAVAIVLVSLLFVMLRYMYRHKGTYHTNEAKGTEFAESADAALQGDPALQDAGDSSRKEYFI
UniProt A4D1E9: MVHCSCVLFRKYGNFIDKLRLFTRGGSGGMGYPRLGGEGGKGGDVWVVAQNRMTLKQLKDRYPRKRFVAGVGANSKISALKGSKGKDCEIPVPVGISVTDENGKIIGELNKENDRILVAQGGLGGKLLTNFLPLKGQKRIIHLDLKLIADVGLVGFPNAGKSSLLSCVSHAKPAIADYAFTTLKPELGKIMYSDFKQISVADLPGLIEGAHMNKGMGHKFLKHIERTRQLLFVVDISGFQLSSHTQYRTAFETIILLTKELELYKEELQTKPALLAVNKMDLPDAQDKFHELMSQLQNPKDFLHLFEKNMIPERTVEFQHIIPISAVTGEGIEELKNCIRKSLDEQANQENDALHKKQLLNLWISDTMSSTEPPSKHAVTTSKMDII
UniProt P78417: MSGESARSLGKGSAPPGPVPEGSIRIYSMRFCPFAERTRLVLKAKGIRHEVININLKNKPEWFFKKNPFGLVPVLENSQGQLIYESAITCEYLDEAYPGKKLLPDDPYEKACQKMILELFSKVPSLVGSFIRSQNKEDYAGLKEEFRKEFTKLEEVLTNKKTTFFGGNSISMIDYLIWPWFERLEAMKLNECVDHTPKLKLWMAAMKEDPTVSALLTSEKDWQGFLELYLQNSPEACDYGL

The other results are listed elsewhere or left out.

Compound in this experiment: CC1=C2C(=CC=C1)N=C(N(C2=O)C3=CC=CC=C3C)CN4C=NC5=C(N=CN=C54)N
Put plainly: log2 fold change, soluble protein after heating vs DMSO (PISA); higher = thermal stabilisation; K562 cells, 10 uM, 30 min; active = over 0.2 and 3.5 SD of the protein, either way, in both replicates (recomputed). The method, boiled down: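 K562 cells at 2×10^6 cells/mL were given 10 μM compound for 30 min. Aliquots then went through 3 min of heating across 48°C-58°C, were pooled, and were extracted in PBS with 0.5% NP-40 at 4°C, and the supernatant after 21,000xg for 90 min was quantified by TMTpro 16plex LC-MS/MS with channel sums equalised. Thermal stability relative to control samples, from duplicates, is given as log2 fold change.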
As for H3-3A (UniProt P84243), the log2 fold change is inactive: 0.154.
As to GSS (UniProt P48637), the log2 fold change is inactive: 0.025.
In the case of HDAC3 isoform 2 (UniProt O15379), the log2 fold change was inactive: 0.033.
Turning to GTF2H3 (UniProt Q13889), the log2 fold change is inactive: 0.099.
As for HDGFL3 (UniProt Q9Y3E1), the log2 fold change is inactive: 0.026.
Regarding GTF2B (UniProt Q00403), the log2 fold change is inactive: 0.154.
For GTF3C1 (UniProt Q12789), the log2 fold change is inactive: 0.198.
For HACD3 (UniProt Q9P035), the log2 fold change is inactive: 0.058.
On to HCFC1 isoform 4 (UniProt P51610), for which the log2 fold change is inactive: 0.036.
Consider HELQ (UniProt Q8TDG4), for which the log2 fold change was inactive: 0.19.
Then HDGF (UniProt P51858), with inactive: 0.036; and HEATR3 (UniProt Q7Z4Q2), with inactive: 0.026.
As to HAT1 (UniProt O14929), the log2 fold change is inactive: 0.007.
Then GTF2A2 (UniProt P52657), with inactive: 0.092; and GTPBP6 (UniProt O43824), with inactive: 0.012.
HEXA (UniProt P06865): the log2 fold change is inactive: 0.052.
In the case of GYG1 (UniProt P46976), the log2 fold change is inactive: -0.046.
As to H1-4 (UniProt P10412), the log2 fold change was inactive: -0.27.
As to GTF2F1 (UniProt P35269), the log2 fold change was inactive: 0.052.
Regarding HEMGN (UniProt Q9BXL5), the log2 fold change was inactive: -0.004.
For HAGH (UniProt Q16775), the log2 fold change is inactive: 0.016.
As for GYPC (UniProt P04921), the figure is inactive: 0.051; as for GTPBP10 (UniProt A4D1E9), inactive: 0.04; as for GSTO1 (UniProt P78417), inactive: -0.002.
